Changes are numbered by the printed parent chain. Results are given in words; binding and its absence hold for the method and conditions named. Binding calls can cover weak binding; strength is not graded here.
Target: cynomologus monkey CD117 ectodomain (aa26-521; F6V858) expressed on cell lines (cynomolgus monkey)
Experiment: flow cytometry on cell line expressing the ectodomain (hybridoma screening)

B1: HC-17/LC-17 (Ab17) (antibody, IgG1, V domains shown)
VH: QIQLVQSGPELRKPGESVKISCKASGYTFTDYAMYWVKQAPGKGLKWMGWINTYTGKPTYADDFKGRFVFSLEASANTANLQISNLKNEDTATYFCARARGLVDDYVMDAWGQGTSVTVSS
VL: SYELIQPPSASVTLGNTVSLTCVGDELSKRYAQWYQQKPDKTIVSVIYKDSERPSGISDRFSGSSSGTTATLTIHGTLAEDEADYYCLSTYSDDNLPVFGGGTKLTVL
notes: From rat immunization/hybridoma; purified IgG in BLI; also called 017
  binding: binds

B2: HC-18/LC-18 (Ab18) (antibody, IgG1, V domains shown)
VH: EVQLQQYGAELGKPGTSVRLSCKVSGYNIRNTYIHWVNQRPGEGLEWIGRIDPTNGNTISAEKFKTKATLTADTSSHTAYLQFSQLKSDDTAIYFCALNYEGYADYWGQGVMVTGSS
VL: DIQMTQSPSFLSASVGDRVTINCKASQNINKYLNWYQQKVGEAPKRLIFKTNSLQTGIPSRFSGSGSGTDYTLTISSLQTEDVATYFCFQYNIGYTFGAGTKVELK
notes: From rat immunization/hybridoma; purified IgG in BLI; also called 018
  binding: binds

B3: HC-23/LC-23 (Ab23) (antibody, IgG1, V domains shown)
VH: B2 VH with N38H, T66S, H77N, L81M, L98M, G115V
VL: B2 VL with V19L, V40L, T80P, Y95F, V103L
notes: From rat immunization/hybridoma; purified IgG in BLI; also called 023
  binding: binds

B4: HC-19/LC-19 (Ab19) (antibody, IgG1, V domains shown)
VH: EVQLQESGPGLVKPSQSLSLTCSVTGYSISSNYRWNWIRKFPGNKVEWMGYINSAGSTNYNPSLKSRISMTRDTSKNQFFLQVNSVTTEDTATYYCARSLRGYITDYSGFFDYWGQGVMVTVSS
VL: DIRMTQSPASLSASLGETVNIECLASEDIFSDLAWYQQKPGKSPQLLIYNANSLQNGVPSRFSGSGSGTRYSLKINSLQSEDVATYFCQQYKNYPLTFGSGTKLEIK
notes: From rat immunization/hybridoma; purified IgG in BLI; also called 019
  binding: binds

B5: HC-20/LC-20 (Ab20) (antibody, IgG1, V domains shown)
VH: EVQLQQYGAELGKPGTSVRLSCKLSGYKIRNTYIHWVNQRPGKGLEWIGRIDPANGNTIYAEKFKSKVTLTADTSSNTAYMQLSQLKSDDTALYFCAMNYEGYEDYWGQGVMVTVSS
VL: B2 VL with R18S, V40L, F49H, N52D, T80P, N92K, I93S, Y95F, T96M, V103L
notes: From rat immunization/hybridoma; purified IgG in BLI; also called 020
  binding: binds

B6: HC-28/LC-28 (Ab28) (antibody, IgG1, V domains shown)
VH: B5 VH with L24V
VL: B2 VL with R18S, V40L, F49H, T56P, I58F, T80P, T85A, I93S, Y95F, V103L
notes: From rat immunization/hybridoma; purified IgG in BLI; also called 028
  binding: binds

B7: HC-21/LC-21 (Ab21) (antibody, IgG1, V domains shown)
VH: QIQLVQSGPELKKPGESVKISCKASGYTFTDYAVYWVIQAPGKGLKWMGWINTYTGKPTYADDFKGRFVFSLETSASTANLQISNLKNEDTATYFCARGAGMTKDYVMDAWGRGVLVTVS
VL: B1 VL with G56D
notes: From rat immunization/hybridoma; purified IgG in BLI; also called 021
  binding: binds

B8: HC-22/LC-22 (Ab22) (antibody, IgG1, V domains shown)
VH: QVQLKESGPGLVQPSQTLSLTCTVSGFSLTSYLVHWVRQPPGKTLEWVGLMWNDGDTSYNSALKSRLSISRDTSKSQVFLKMHSLQAEDTATYYCARESNLGFTYWGHGTLVTVSS
VL: DIQMTQSPASLSASLEEIVTITCKASQGIDDDLSWYQQKPGKSPQLLIYDVTRLADGVPSRFSGSRSGTQYSLKISRPQVADSGIYYCLQSYSTPYTFGAGTKLELK
notes: From rat immunization/hybridoma; purified IgG in BLI; also called 022
  binding: binds

B9: HC-24/LC-24 (Ab24) (antibody, IgG1, V domains shown)
VH: EVQLVESGGGLVQSGRSLKLSCAASGFTVSDYYMAWVRQAPTKGLEWVATINYDGSTTYHRDSVKGRFTISRDNAKSTLYLQMDSLRSEDTATYYCARHGDYGYHYGAYYFDYWGQGVMVTVSS
VL: DIVLTQSPALAVSLGQRATISCRASQTVSLSGYNLIHWYQQRTGQQPKLLIYRASNLAPGIPARFSGSGSGTDFTLTISPVQSDDIATYYCQQSRESWTFGGGTNLEMK
notes: From rat immunization/hybridoma; purified IgG in BLI; also called 024
  binding: binds

B10: HC-25/LC-25 (Ab25) (antibody, IgG1, V domains shown)
VH: QIQLVQSGPELKKPGESVKISCKASGYTFTDYAIHWVKQAPGQGLRWMAWINTETGKPTYADDFKGRFVFSLEASASTAHLQISNLKNEDTATFFCAGGSHWFAYWGQGTLVTVSS
VL: SYELIQPPSASVTLENTVSITCSGDELSNKYAHWYQQKPDKTILEVIYNDSERPSGISDRFSGSSSGTTAILTIRDAQAEDEADYYCLSTFSDDDLPIFGGGTKLTVL
notes: From rat immunization/hybridoma; purified IgG in BLI; also called 025
  binding: binds

B11: HC-27/LC-27 (Ab27) (antibody, IgG1, V domains shown)
VH: EVQLVESGGGLVQPGRSMKLSCKASGFTFSNYDMAWVRQAPTRGLEWVASISYDGITAYYRDSVKGRFTISRENAKSTLYLQLVSLRSEDTATYYCTTEGGYVYSGPHYFDYWGQGVMVTVSS
VL: DIQMTQSPSSMSVSLGDTVTITCRASQDVGIFVNWFQQKPGRSPRRMIYRATNLADGVPSRFSGSRSGSDYSLTISSLESEDVADYHCLQYDEFPRTFGGGTKLELK
notes: From rat immunization/hybridoma; purified IgG in BLI; also called 027
  binding: binds
